Values from PubChem BioAssay AID1671195 (Yale University, 2021)

Screen: 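Genes whose knockdown alters LDL uptake in liver cancer cells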 (primary screen)
System: human Huh7 hepatoma cells
Knock-down reagent: siRNA pool against human genes, 18 nM
Timing: about 2 to 2.5 days of knockdown, then 8 h LDL uptake
Challenge: DiI-labelled LDL at 30 µg/ml for 8 h, in lipoprotein-deficient serum medium
Read-out: 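Per-cell DiI-LDL intensity by automated imaging; well means scaled to the plate median and given as a robust z-score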
Scale: robust z-score: higher = more LDL uptake after knockdown
Active means: 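Active when two or more replicates show a robust z-score above 2 or below -2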
Here is an unselected part of about 22,000 reagents. About 1,510 of all reagents (6.9%) count as active. 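Active includes knockdowns raising or lowering LDL uptake; positive z-scores mean more uptake, negative mean less.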

gene symbol | robust z-score, replicate 1 | robust z-score, replicate 2 | robust z-score, replicate 3 | Call
DPPA4 | -1.18 | -0.139 | -2.01 | inactive
PWWP3A | 0.0838 | -0.347 | -0.513 | inactive
COX15 | 0.282 | -0.705 | -0.954 | inactive
LOC442397 (retired record) | -1.23 | -1.07 | -0.603 | inactive
MOV10 | -0.995 | -0.472 | -0.792 | inactive
SCAMP4 | -1.67 | -0.41 | -0.764 | inactive
APLP2 | -1.11 | -0.253 | -0.799 | inactive
ELP4 | -0.363 | -0.427 | -1.05 | inactive
CCIN | -0.311 | -0.802 | 0.341 | inactive
USP6NL-AS1 | -0.111 | -0.134 | -0.471 | inactive
CACNB2 | 2.51 | 0.234 | 1.61 | inactive
ZFAND2B | 0.871 | 1.22 | 1 | inactive
CCL24 | -1.59 | -1.63 | -1.27 | inactive
LOC442073 (retired record) | -0.867 | -0.619 | -0.795 | inactive
POMK | 2.45 | 2.11 | 1.78 | active
TTC13 | 0.0361 | 0.698 | 0.84 | inactive
SNX18 | -0.0649 | -0.274 | 0.249 | inactive
NACC1 | -0.651 | -0.502 | -0.98 | inactive
CEP128 | 0.557 | 0.355 | 0.226 | inactive
STMN4 | -1.54 | -1.26 | -1.06 | inactive
EMX1 | 0.832 | 1.51 | 0.398 | inactive
SNRPD3 | 3.86 | 4.49 | 2.29 | active
SMARCD1 | 1.15 | 2.36 | 0.608 | inactive
CMTM4 | -1.27 | -0.0208 | -0.778 | inactive
KCNC2 | 0.321 | 0.498 | 0.262 | inactive
LOC441566 (retired record) | 1.71 | 1.17 | 1.37 | inactive
DSG2 | -0.177 | 0.174 | 0.438 | inactive
MYO1H | 0.0823 | 0.203 | 0.0263 | inactive
LOC388807 (retired record) | -1.56 | -1.72 | -1.58 | inactive
AMMECR1 | -1.42 | -1.04 | 0.96 | inactive
LOC440467 (retired record) | -1.12 | -1.24 | -1.48 | inactive
LOC440761 (retired record) | 1.55 | 0.82 | 0.838 | inactive
PIK3CD | 0.44 | 0.179 | 0.856 | inactive
ZNF513 | -0.0245 | -0.134 | 0.37 | inactive
CDS1 | -0.248 | -0.901 | -0.45 | inactive
KCNQ4 | -0.163 | -0.0178 | -0.635 | inactive
PRPF18 | 0.332 | 1.42 | 1.08 | inactive
KANK3 | -1.15 | -1.07 | -1.09 | inactive
FLJ46875 | 0.0802 | -0.0501 | 0.0959 | inactive
TAF1C | 2.31 | 1.24 | 0.925 | inactive

Called active, among the entries above:
gene symbol | robust z-score, replicate 1 | robust z-score, replicate 2 | robust z-score, replicate 3 | Call
POMK | 2.45 | 2.11 | 1.78 | active
SNRPD3 | 3.86 | 4.49 | 2.29 | active

Next results:
gene symbol | robust z-score, replicate 1 | robust z-score, replicate 2 | robust z-score, replicate 3 | Call
VWA7 | -2.29 | -2.1 | -2.08 | active
OR51B6 | 1.25 | 1.05 | 1.53 | inactive
VPS51 | 2.33 | 0.513 | 0.926 | inactive
KRTDAP | -0.0729 | -0.154 | 0.2 | inactive
IFT25 | 0.412 | 0.68 | 0.157 | inactive
CEACAM6 | 1.17 | 0.856 | 1.15 | inactive
GAPDH | 0.21 | 0.0143 | 0.781 | inactive
OR6T1 | 0.988 | 0.816 | 0.909 | inactive
LOC400733 (retired record) | -1.42 | -1.38 | -1.49 | inactive
CALB1 | 0.353 | 0.38 | 0.537 | inactive
CSNK2A2 | -0.305 | -0.417 | 0.25 | inactive
MAZ | 0.0699 | 0.361 | -0.0955 | inactive
FAM47C | -0.242 | -0.106 | 0.482 | inactive
ZNF182 | -0.345 | 0.141 | -0.232 | inactive
EFR3A | 2.08 | 0.667 | 0.778 | inactive
ADCY10 | -1.17 | -0.63 | -1.54 | inactive
BYSL | -0.99 | -0.583 | -1.16 | inactive
SH3BGRL2 | 0.259 | 0.57 | 0.299 | inactive
DRC12 | -0.512 | -0.135 | -0.617 | inactive
MIR2052HG | -0.447 | -0.378 | -0.655 | inactive
GVINP1 | -0.8 | -0.737 | -0.599 | inactive
MAPKAP1 | -0.948 | -1.01 | -1.87 | inactive
PCDHB14 | -1.28 | -1.14 | -1.24 | inactive
LINC02483 | 1.82 | 2.18 | 1.85 | inactive
LINC01140 | 0.534 | 0.903 | 0.469 | inactive
LAMA3 | 2.14 | 1.69 | 1.35 | inactive
IQCF3 | -1.23 | -1.3 | -1.45 | inactive
MLKL | -1.47 | -1.87 | -2.02 | inactive
